Assay results: article PMC6157487
Like-named read-outs stand apart in the source and are kept apart here. These are yes or no findings as the source states them, for the method shown. In cells and extracts the contact can be indirect. Some entries that bind do so weakly or less than the wild type. Values belong to the molecule of their own block, whether it stands above or below them.

Protein sequences, listed by entry. Tags and fused reporters are not part of them.
UniProt P22002: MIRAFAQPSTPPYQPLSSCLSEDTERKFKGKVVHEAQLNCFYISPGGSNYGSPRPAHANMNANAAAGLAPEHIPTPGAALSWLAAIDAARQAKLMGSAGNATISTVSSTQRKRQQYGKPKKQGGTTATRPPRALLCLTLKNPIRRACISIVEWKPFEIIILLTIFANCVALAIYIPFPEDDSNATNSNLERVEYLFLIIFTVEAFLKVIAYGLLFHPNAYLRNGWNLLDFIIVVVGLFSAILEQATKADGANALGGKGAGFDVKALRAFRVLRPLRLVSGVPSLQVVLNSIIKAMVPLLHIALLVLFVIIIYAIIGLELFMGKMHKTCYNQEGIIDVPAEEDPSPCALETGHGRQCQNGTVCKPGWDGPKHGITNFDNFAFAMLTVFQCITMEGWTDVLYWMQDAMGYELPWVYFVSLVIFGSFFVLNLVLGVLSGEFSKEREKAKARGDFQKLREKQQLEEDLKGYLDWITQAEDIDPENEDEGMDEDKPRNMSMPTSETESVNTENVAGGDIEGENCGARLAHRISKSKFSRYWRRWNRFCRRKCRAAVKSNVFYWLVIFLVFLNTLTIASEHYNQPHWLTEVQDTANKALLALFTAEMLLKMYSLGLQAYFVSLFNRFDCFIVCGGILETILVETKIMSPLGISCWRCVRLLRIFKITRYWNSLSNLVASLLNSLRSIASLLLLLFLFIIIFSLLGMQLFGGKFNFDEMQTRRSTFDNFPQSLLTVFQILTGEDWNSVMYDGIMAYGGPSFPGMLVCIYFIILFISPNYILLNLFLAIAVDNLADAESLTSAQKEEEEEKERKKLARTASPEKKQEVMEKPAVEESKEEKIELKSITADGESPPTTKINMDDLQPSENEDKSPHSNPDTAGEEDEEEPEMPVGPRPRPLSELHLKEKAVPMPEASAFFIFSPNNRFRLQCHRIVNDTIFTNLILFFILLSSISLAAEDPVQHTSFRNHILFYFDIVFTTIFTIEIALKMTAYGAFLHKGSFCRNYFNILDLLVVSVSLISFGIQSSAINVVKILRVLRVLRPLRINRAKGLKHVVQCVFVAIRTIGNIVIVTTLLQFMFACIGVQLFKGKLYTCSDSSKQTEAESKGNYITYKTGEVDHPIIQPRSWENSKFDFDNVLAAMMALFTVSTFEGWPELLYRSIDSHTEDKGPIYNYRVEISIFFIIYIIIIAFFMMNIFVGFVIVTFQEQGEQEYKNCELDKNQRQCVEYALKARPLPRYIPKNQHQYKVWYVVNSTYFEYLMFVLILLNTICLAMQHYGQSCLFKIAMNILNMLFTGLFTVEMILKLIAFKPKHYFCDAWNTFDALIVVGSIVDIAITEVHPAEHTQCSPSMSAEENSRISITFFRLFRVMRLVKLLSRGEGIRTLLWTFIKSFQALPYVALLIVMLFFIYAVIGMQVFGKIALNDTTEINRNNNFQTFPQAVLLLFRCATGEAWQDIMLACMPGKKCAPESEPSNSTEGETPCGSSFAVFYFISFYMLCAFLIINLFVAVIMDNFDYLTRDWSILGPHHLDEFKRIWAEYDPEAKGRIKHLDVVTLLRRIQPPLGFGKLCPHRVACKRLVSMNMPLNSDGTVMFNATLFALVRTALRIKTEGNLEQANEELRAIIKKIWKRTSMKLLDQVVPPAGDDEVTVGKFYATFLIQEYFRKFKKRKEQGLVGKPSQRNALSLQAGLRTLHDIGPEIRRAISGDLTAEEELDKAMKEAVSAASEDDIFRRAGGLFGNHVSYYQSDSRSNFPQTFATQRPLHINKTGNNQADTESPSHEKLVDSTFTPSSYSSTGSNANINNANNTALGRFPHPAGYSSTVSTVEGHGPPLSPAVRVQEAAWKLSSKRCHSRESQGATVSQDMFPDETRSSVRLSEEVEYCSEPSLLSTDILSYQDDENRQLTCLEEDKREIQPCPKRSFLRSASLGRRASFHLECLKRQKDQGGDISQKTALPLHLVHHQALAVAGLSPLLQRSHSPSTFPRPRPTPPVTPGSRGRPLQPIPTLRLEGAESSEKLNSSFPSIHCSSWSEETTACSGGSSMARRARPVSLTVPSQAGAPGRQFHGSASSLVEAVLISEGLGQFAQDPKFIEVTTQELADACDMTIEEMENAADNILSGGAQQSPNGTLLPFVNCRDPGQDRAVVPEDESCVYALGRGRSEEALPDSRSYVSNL

How the values were obtained:
[1] = biological target: T1, Caveolin-3 (rat (endogenous in Lewis rat cardiomyocytes)) (UniProt P51638); assay: proximity ligation; Duolink (in situ) kit with 'green' detection reagents on isolated Lewis rat cardiomyocytes fixed with methanol (-20°C); cells from loaded hearts and from hearts after 8 weeks of partial mechanical unloading (HTHAL); confocal imaging, particles counted in ImageJ
T1 sequence: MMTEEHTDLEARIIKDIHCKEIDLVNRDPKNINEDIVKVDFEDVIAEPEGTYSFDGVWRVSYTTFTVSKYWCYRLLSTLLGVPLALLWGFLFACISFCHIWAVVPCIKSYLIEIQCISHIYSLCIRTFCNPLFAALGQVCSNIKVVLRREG

[2] = biological target: T1, Caveolin-3 (rat (endogenous in Lewis rat cardiomyocytes)); assay: as above; remark: listed apart in the source

binding [1]: binds
Molecule: Cav1.2 sub-unit of the L-type calcium channel (from UniProt P22002 1-2169)

binding [2]: binds
B1: Junctophilin-2 (protein, UniProt Q2PS20 1-692)
chain: MSGGRFDFDDGGAYCGGWEGGKAHGHGLCTGPKGQGEYSGSWNFGFEVAGVYTWPSGNTFEGYWSQGKRHGLGIETKGRWLYKGEWTHGFKGRYGIRQSTNSGAKYEGTWNNGLQDGYGTETYADGGTYQGQFTNGMRHGYGVRQSVPYGMAVVVRSPLRTSLSSLRSEHSNGTVAPDSPAADGPTLPLPPVPRGGFALSLLATAEAARPPGLFTRGALLGRLRRSESRTSLGSQRSRLSFLKSELSSGASDAASTGSLAEGAEGPDDAAAPFDADIDATTTETYMGEWKNDKRSGFGVSERSSGLRYEGEWLDNLRHGYGRTTLPDGHREEGKYRHNVLVKGTKRRVLPLKSNKVRQKVEHGVEGAQRAAAIARQKAEIAASRTSHAKAKAEAAEQAALAANQESNIARTLAKELAPDFYQPGPEYQKRRLLQEILENSESLLEPRERGPGTGLPERPRESPQLHERETPQPEGGPPSPAGTPPQPKRPRPGSSKDGLLSPGAWNGEPGGEGSRPATPSDGAGRRSPARPASEHMAIEALQPPPAPSREPEVALYRGYHSYAVRTGPPEPPPLEDEPEPEPEVPRSDSEPPSPVSATVQEEESPAPRSRVPAKPATLEPKPIVPKAEPKAKARKTEARGLSKAGAKKKGRKEVAQEAEAEVEVEEVPNTVLICMVILLNIGLAILFVHLLT
